Results are given in words; binding and its absence hold for the method and conditions named. Binding seen in cells or lysates may run through a third protein. Here binding means that the protein was enriched with, or labelled near, the bait; the list need not be complete.
B1: carbonic anhydrase 3 (protein, UniProt P14141 1-260)
chain: MAKEWGYASHNGPEHWHELYPIAKGDNQSPIELHTKDIRHDPSLQPWSVSYDPGSAKTILNNGKTCRVVFDDTFDRSMLRGGPLSGPYRLRQFHLHWGSSDDHGSEHTVDGVKYAAELHLVHWNPKYNTFGEALKQPDGIAVVGIFLKIGREKGEFQILLDALDKIKTKGKEAPFNHFDPSCLFPACRDYWTYHGSFTTPPCEECIVWLLLKEPMTVSSDQMAKLRSLFASAENEPPVPLVGNWRPPQPIKGRVVRASFK
B2: aconitate hydratase, mitochondrial precursor (protein, UniProt Q9ER34 28-780)
chain: QRAKVAMSHFEPSEYIRYDLLEKNINIVRKRLNRPLTLSEKIVYGHLDDPANQEIERGKTYLRLRPDRVAMQDATAQMAMLQFISSGLPKVAVPSTIHCDHLIEAQLGGEKDLRRAKDINQEVYNFLATAGAKYGVGFWRPGSGIIHQIILENYAYPGVLLIGTDSHTPNGGGLGGICIGVGGADAVDVMAGIPWELKCPKVIGVKLTGTLSGWTSPKDVILKVAGILTVKGGTGAIVEYHGPGVDSISCTGMATICNMGAEIGATTSVFPYNHRMKKYLSKTGRADIANLAEEFKDHLVPDPGCQYDQVIEINLNELKPHINGPFTPDLAHPVADVGTVAEKEGWPLDIRVGLIGSCTNSSYEDMGRSAAVAKQALAHGLKCKSQFTITPGSEQIRATIERDGYAQILRDVGGIVLANACGPCIGQWDRKDIKKGEKNTIVTSYNRNFTGRNDANPETHAFVTSPEIVTALAIAGTLKFNPETDFLTGKDGKKFKLEAPDADELPRSDFDPGQDTYQHPPKDSSGQRVDVSPTSQRLQLLEPFDKWDGKDLEDLQILIKVKGKCTTDHISAAGPWLKFRGHLDNISNNLLIGAINIENGKANSVRNAVTQEFGPVPDTARYYKKHGIRWVVIGDENYGEGSSREHAALEPRHLGGRAIITKSFARIHETNLKKQGLLPLTFADPSDYNKIHPVDKLTIQGLKDFAPGKPLNCIIKHPNGTQETILLNHTFNETQIEWFRAGSALNRMKELQQ
B3: acetyl-CoA acyltransferase 2, mitochondrial (protein, UniProt P13437 1-397)
chain: MALLRGVFIVAAKRTPFGAYGGLLKDFTATDLTEFAARAALSAGKVPPETIDSVIVGNVMQSSSDAAYLARHVGLRVGVPTETGALTLNRLCGSGFQSIVSGCQEICSKDAEVVLCGGTESMSQSPYSVRNVRFGTKFGLDLKLEDTLWAGLTDQHVKLPMGMTAENLAAKYNISREDCDRYALQSQQRWKAANEAGYFNEEMAPIEVKTKKGKQTMQVDEHARPQTTLEQLQNLPPVFKKEGTVTAGNASGMSDGAGVVIIASEDAVKKHNFTPLARVVGYFVSGCDPAIMGIGPVPAITGALKKAGLSLKDMDLIDVNEAFAPQFLAVQKSLDLDPSKTNVSGGAIALGHPLGGSGSRITAHLVHELRRRGGKYAVGSACIGGGQGISLIIQNTA
B4: electron transfer flavoprotein, subunit beta (protein, UniProt Q68FU3 1-255)
chain: MAELRALVAVKRVIDFAVKIRVKPDKSGVVTDGVKHSMNPFCEIAVEEAVRLKEKKLVKEIIAVSCGPPQCQETIRTALAMGADRGIHVEVPGAEAENLGPLQVARVLAKLAEKEKVDLLFLGKQAIDDDCNQTGQMTAGLLDWPQGTFASQVTLEGDKVKVEREIDGGLETIRLKLPAVVTADLRLNEPRYATLPNIMKAKKKKIEVIKAGDLGVDLTSKVSVISVEEPPQRLAGVKVETTEDLVAKLKEVGRI

Amino acid sequences for entries named in this document (tags omitted). Residues count along the entry.
UniProt P10719, residues 47-529: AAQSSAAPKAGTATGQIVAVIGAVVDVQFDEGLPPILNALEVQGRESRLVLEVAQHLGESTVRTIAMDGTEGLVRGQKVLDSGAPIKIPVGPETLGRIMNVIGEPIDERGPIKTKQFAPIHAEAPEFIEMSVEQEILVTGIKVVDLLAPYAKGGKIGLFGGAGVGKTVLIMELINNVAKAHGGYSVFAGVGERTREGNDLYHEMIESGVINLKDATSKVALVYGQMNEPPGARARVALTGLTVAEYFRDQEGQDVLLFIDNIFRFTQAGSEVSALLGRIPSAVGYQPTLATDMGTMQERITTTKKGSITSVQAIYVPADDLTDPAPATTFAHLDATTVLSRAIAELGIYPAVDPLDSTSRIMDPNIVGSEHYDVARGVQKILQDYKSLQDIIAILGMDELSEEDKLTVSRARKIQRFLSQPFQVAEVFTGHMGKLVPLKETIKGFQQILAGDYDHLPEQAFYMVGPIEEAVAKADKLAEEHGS
UniProt P04797: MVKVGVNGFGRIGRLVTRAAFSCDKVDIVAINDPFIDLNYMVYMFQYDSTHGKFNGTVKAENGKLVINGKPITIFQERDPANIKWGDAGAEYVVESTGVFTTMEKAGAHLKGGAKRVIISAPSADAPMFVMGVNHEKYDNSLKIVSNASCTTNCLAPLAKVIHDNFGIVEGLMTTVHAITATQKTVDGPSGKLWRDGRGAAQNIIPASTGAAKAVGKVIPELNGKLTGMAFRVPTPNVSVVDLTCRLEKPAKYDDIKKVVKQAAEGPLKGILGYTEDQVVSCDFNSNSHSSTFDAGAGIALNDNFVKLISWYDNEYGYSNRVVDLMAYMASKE
UniProt P48500: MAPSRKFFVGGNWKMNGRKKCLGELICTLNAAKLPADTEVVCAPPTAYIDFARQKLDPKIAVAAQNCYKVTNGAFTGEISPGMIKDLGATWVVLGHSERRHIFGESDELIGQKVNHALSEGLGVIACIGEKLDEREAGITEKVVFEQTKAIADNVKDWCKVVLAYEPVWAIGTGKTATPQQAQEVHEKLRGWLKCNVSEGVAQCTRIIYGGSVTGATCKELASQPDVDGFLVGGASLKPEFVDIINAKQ

molecular target: T1, Caveolin-1 (rat (endogenous in abdominal WAT and BAT)) (UniProt P41350); assay: affinity purification with mass spectrometry; co-IP of endogenous CAV1 with anti-CAV1 antibody (Cell Signaling; Thermo Scientific CO-IP kit) from rat abdominal WAT lysate (control, E2-treated and DHT-treated rats); SDS-PAGE, silver staining, bands identified by MALDI-TOF peptide mass fingerprinting (MASCOT); control rabbit IgG sample
T1 sequence: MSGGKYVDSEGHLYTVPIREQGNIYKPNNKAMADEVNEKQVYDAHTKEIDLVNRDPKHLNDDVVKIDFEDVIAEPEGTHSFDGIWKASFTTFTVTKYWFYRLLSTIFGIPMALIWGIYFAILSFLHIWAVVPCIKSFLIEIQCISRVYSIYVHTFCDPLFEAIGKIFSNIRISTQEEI

binding, binds:
N-acetylmuramoyl-L-alanine amidase (rat (endogenous in abdominal WAT))
B1

molecular target: T1, Caveolin-1 (rat (endogenous in abdominal WAT and BAT)); assay: affinity purification with mass spectrometry; co-IP of endogenous CAV1 with anti-CAV1 antibody (Cell Signaling; Thermo Scientific CO-IP kit) from rat BAT lysate (control, E2-treated and DHT-treated rats); SDS-PAGE, silver staining, bands identified by MALDI-TOF peptide mass fingerprinting (MASCOT); control rabbit IgG sample

binding, binds:
ATP synthase (H+ transporting, mitochondrial F1 complex, beta polypeptide) (from UniProt P10719 47-529)
glyceroldehyde-3-phosphate dehydrogenase (from UniProt P04797 1-333)
triose phosphate isomerase 1 (from UniProt P48500 1-249)
B2
B3
B4

From publication PMC3948350
